Data from patent publication US20070243194A1.
These are yes or no findings as the source states them, for the method shown. Some binding calls cover weakened binding; strength is not graded here.

Chains of the proteins cited; added tags and fusions are not shown. Lines headed by an entry give the natural chain unless they say otherwise; changes in a name come on top.
UniProt P08069: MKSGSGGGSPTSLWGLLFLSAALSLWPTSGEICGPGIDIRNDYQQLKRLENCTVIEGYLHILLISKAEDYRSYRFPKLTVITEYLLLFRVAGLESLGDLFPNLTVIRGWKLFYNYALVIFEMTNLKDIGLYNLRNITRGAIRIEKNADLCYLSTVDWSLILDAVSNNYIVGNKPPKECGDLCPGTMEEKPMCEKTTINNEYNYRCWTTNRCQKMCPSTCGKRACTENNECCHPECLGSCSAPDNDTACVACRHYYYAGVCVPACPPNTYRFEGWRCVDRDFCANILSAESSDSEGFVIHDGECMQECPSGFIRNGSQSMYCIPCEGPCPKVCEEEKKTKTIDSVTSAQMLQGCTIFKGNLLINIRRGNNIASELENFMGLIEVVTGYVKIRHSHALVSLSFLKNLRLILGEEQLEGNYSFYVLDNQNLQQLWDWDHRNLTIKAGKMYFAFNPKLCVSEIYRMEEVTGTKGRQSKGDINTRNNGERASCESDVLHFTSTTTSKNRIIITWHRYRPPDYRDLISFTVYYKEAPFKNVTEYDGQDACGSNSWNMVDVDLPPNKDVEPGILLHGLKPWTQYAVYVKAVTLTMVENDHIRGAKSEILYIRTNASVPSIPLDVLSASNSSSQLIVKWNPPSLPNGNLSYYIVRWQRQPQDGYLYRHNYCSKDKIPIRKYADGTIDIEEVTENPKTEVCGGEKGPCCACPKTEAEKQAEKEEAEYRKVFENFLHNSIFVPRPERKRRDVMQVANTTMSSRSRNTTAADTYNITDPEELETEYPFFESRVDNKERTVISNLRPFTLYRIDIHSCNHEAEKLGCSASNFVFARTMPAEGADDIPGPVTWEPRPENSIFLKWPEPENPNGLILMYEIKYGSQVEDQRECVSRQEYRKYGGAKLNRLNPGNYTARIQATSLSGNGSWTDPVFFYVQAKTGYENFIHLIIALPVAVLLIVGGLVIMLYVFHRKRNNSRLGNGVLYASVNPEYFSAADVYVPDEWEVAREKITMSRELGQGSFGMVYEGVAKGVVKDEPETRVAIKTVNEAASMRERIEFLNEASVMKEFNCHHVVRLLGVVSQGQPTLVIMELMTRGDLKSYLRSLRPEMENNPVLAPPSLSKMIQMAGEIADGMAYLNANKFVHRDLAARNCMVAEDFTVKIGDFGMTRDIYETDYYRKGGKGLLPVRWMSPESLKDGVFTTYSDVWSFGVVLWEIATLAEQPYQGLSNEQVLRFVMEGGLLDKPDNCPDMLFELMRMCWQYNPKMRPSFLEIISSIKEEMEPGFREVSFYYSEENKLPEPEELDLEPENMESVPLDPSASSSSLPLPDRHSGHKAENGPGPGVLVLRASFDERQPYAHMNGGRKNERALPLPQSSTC

Columns and labels:
[1] = target: human IGF-1R(1-903)-Fc (human) (UniProt P08069); experiment: ELISA, IGF-1R.Fc coated
[2] = target: human IGF-1R(1-903)-Fc (human) (UniProt P08069); experiment: SPR, antibody immobilised
[3] = target: human IGF-1R on cells (human) (UniProt P08069); experiment: flow cytometry, MCF-7 and IGF-1R/3T3 cells
[4] = target: human IGF-1R(1-903)-Fc (human) (UniProt P08069); experiment: ELISA on plates coated with soluble IGF-1R-Fc, anti-human kappa-HRP [b]
[5] = target: human IGF-1R(1-903)-Fc (human) (UniProt P08069); experiment: solid-phase RIA; blocks binding of 125I-IGF-2 to immobilised IGF-1R-Fc [9.b.]
[6] = target: human IGF-1R on cells (human) (UniProt P08069); experiment: flow cytometry on IGF-1R/3T3 transfectants with parental 3T3 cells as control [b]
[7] = target: human IGF-1R on cells (human) (UniProt P08069); experiment: flow cytometry on MCF-7 cells, anti-human IgG-RPE; x axis is the log of Ab conc. (nM) [a]

Measured: binding

B1: M14-C03.G4.P.agly (antibody, human IgG4 S228P, kappa, V domains shown)
VH: EVQLLESGGGLVQPGGSLRLSCAASGFTFSKYMMSWVRQAPGKGLEWVSYISPSGGLTWYADSVKGRFTISRDNSKNTLYLQMNSLRAEDTAVYYCARDGARGYGMDVWGQGTTVTVSS
VL: DIQMTQSPATLSLSPGERATLSCRASQSVSSYLAWYQQKPGQAPRLLIYDASNRATGIPARFSGSGSGTDFTLTISSLEPEDFAVYYCQQRSNWPPEVTFGPGTKVDIKR
binds: [1] | [2] | [3] | [4] | [5] | [6] | [7]
